No constants are given. Whether binding was seen depends on the method and setting. In cells and extracts the contact can be indirect. Some binding calls cover weakened binding; strength is not graded here. Tags and fused reporters may be left off the sequences shown.
Biological target: T1, K+ channel regulator protein 1 (KCR1) with three N-terminal FLAG epitopes (rat) (UniProt O88788)
T1 sequence: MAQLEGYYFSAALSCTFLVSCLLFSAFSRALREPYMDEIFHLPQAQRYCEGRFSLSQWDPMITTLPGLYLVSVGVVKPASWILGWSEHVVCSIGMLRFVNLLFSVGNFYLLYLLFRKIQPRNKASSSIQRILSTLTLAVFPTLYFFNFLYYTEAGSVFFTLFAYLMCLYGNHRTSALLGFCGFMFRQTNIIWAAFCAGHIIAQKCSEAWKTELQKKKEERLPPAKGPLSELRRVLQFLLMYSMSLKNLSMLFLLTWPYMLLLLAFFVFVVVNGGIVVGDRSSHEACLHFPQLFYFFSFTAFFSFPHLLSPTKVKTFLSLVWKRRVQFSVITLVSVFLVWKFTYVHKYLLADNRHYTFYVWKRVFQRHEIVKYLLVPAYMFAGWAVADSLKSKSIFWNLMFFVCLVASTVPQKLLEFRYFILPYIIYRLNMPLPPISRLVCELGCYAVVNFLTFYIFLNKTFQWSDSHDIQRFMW
Experiment: co-IP; CHO cells cotransfected with HCN2 and pCFLAG^3-KCR1; 700 µg of extract (50 mM Tris pH 7.4, 150 mM NaCl, 0.25% Triton X-100, 5 mM NaF) immunoprecipitated with anti-FLAG-M2 Sepharose, Western blot with anti-HCN2 antibody; controls: pCFLAG^3-KCR1 alone, HCN2 plus empty FLAG vector, mock precipitation with A-Sepharose

binding: binds
B1: HCN2 (hyperpolarization-activated, cyclic nucleotide-gated ion channel subunit 2) (protein, UniProt O88703 1-863)
chain: MDARGGGGRPGDSPGTTPAPGPPPPPPPPAPPQPQPPPAPPPNPTTPSHPESADEPGPRARLCSRDSACTPGAAKGGANGECGRGEPQCSPEGPARGPKVSFSCRGAASGPSAAEEAGSEEAGPAGEPRGSQASFLQRQFGALLQPGVNKFSLRMFGSQKAVEREQERVKSAGAWIIHPYSDFRFYWDFTMLLFMVGNLIIIPVGITFFKDETTAPWIVFNVVSDTFFLMDLVLNFRTGIVIEDNTEIILDPEKIKKKYLRTWFVVDFVSSIPVDYIFLIVEKGIDSEVYKTARALRIVRFTKILSLLRLLRLSRLIRYIHQWEEIFHMTYDLASAVMRICNLISMMLLLCHWDGCLQFLVPMLQDFPSDCWVSINNMVNHSWSELYSFALFKAMSHMLCIGYGRQAPESMTDIWLTMLSMIVGATCYAMFIGHATALIQSLDSSRRQYQEKYKQVEQYMSFHKLPADFRQKIHDYYEHRYQGKMFDEDSILGELNGPLREEIVNFNCRKLVASMPLFANADPNFVTAMLTKLKFEVFQPGDYIIREGTIGKKMYFIQHGVVSVLTKGNKEMKLSDGSYFGEICLLTRGRRTASVRADTYCRLYSLSVDNFNEVLEEYPMMRRAFETVAIDRLDRIGKKNSILLHKVQHDLSSGVFNNQENAIIQEIVKYDREMVQQAELGQRVGLFPPPPPPQVTSAIATLQQAVAMSFCPQVARPLVGPLALGSPRLVRRAPPGPLPPAASPGPPAASPPAAPSSPRAPRTSPYGVPGSPATRVGPALPARRLSRASRPLSASQPSLPHGVPAPSPAASARPASSSTPRLGPAPTARTAAPSPDRRDSASPGAASGLDPLDSARSRLSSNL
